Laboratory results taken from PubChem BioAssay AID652054 (National Center for Advancing Translational Sciences (NCATS), 2013).
In all, about 360,000 compounds went through this assay and about 9,100 (2.5%) were called active. The shares of active, inactive and inconclusive entries below differ from those in the screen. No stated cut-off is given here; in the data, active means max response below about -50%; inconclusive means no clear call, values can overlap the other calls; inactive means above that.

Protein sequences, listed by entry. Tags and fused reporters are not part of them.
UniProt P35462, whole entry, looked up: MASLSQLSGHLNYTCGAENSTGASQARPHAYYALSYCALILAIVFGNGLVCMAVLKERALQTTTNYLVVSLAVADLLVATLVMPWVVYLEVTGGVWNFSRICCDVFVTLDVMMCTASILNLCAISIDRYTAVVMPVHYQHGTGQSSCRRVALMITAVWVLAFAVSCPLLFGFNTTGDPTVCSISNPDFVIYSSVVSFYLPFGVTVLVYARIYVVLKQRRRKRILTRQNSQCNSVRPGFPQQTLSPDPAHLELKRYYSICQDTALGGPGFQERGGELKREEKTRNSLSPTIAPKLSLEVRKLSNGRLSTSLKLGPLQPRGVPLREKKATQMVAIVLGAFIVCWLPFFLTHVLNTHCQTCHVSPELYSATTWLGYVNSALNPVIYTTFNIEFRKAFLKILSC

molecular target: D(3) dopamine receptor (Homo sapiens) (UniProt P35462); assay: qHTS of D3 Dopamine Receptor Antagonist: qHTS; details: D3R cells, DiscoveRx beta-arrestin luminescence, antagonist mode; hits give low values
From the text: D3 DARs represent a very important target for the treatment of several neuropsychiatric disorders. Indeed, one of the most promising therapeutic applications for the D3 DAR is in the area of addiction and related disorders. […] These findings have been observed with a number of addictive substances including cocaine, amphetamine, nicotine, and alcohol. […] Antagonism of the D3 DAR may also be therapeutic in the treatment of schizophrenia or psychosis. […] Since the D3 DAR is expressed in areas of the CNS associated with the control of mood and emotion, it has been hypothesized that selective antagonism of the D3 DAR may be effective in treating psychosis without inducing the motor side effects typically seen with D2 DAR antagonists.
This part of the project aims to discover novel antagonist.
NIH Chemical Genomics Center [NCGC]
NIH Molecular Libraries Probe Centers Network [MLPCN]
Assay Submitter (PI): David Sibley, NINDS
Freshly passaged cells are plated in 1536 well white, solid bottom plates at a density of 1500 cells/well in 3microl of complete media. After an overnight incubation at 37 degrees C in 5% CO2, cells are loaded with 23nl of test compound from the compound library (as well as dopamine controls) using a 1536 pintool and incubated at 37 degrees C for 90 minutes. Two microliters of DiscoveRx reagent is then added to all cells, and they are incubated for an additional 30 - 60 minutes at room temperature. Following incubation, luminescence is measured on a ViewLux CCD-based luminometer reader using a 20 sec exposure time.
On the % scale 0 is the no-effect control and ±100 the full control effect.

Row | Compound | max response, negative = inhibition
1 | Cc1ccccc1C(=O)N(C)[C@H]1C[C@H]2c3[nH]c4ccccc4c3CCN2C(=O)[C@H]1[C@H](C)O | inconclusive: -31.4%
2 | Cc1c(C(=O)c2ccc(Cl)c(Cl)c2)cnc2cc3c(cc12)OCO3 | active: -55.8%
3 | Cc1ccc(CN2CCN(CC3CC4C=CC3C4)CC2)cc1 (configuration not stated) | active: -59.9%
4 | O=C(NNC1CC(=O)N(c2ccc(Br)cc2)C1=O)c1ccccn1 (configuration not stated) | inconclusive: -30.5%
5 | COc1cc(CNCCc2c[nH]c3ccccc23)ccc1OCc1ccccc1F | active: -55.7%
6 | CC(=O)c1ccc2c(c1)OCCOCCOc1ccccc1OCCOCCO2 | inconclusive: -37.5%
7 | CCOc1ccc(C(=O)OCC(=O)NC2CCCC2)cc1OCC | inactive: 16.1%
8 | CN(CCc1ccccn1)C(=O)CN(C)S(=O)(=O)c1ccc2c(c1)c(=O)n(C)c(=O)n2C | inconclusive: -35.8%
9 | COc1ccc(NS(=O)(=O)c2cc(NC(=O)c3ccco3)ccc2N2CCCCC2)cc1 | inconclusive: -32.3%
10 | COC(=O)NC(=S)Nc1ccc(Oc2ccc(Cl)cc2)c(Cl)c1 | inconclusive: -37.9%
11 | Oc1c(CN2CCOCC2)cc(COCc2ccccc2)c2cccnc12 | active: -67.4%
12 | Cc1cc2nc(-c3ccc(=O)[nH]c3)n(Cc3ccccc3)c2cc1C | inactive: -10.9%
13 | COc1cc2c(cc1OC)C(=O)N(C)CC2 | inconclusive: -32.5%
14 | CC(N1CCOC1=O)S(=O)(=O)c1ccccc1 (configuration not stated) | inconclusive: -31.1%
15 | CN(C)C(CNC(=O)c1cccc(S(=O)(=O)Nc2ccccc2Cl)c1)c1ccccc1 (configuration not stated) | inconclusive: -44.9%
16 | CCN1C(=NCC2CC2)N[C@@H](c2ccccc2)C(C(=O)OC)=C1C | inactive: -22.2%
17 | Cn1nnnc1SCC(=O)NC(=O)Cc1ccccc1 | inconclusive: -41.2%
18 | O=c1cc(-c2ccccc2)n(S(=O)(=O)c2ccc3ccccc3c2)o1 | active: -77%
19 | CC(=O)c1cccc(NC(=O)c2c(F)c(F)c(F)c(F)c2F)c1 | inconclusive: -38.2%

Row | Compound | max response, negative = inhibition
20 | Brc1ccccc1CN1CCN(Cc2c[nH]c3ccccc23)CC1 | active: -80.2%
21 | CCOc1cc(N2CCOCC2)c(OCC)cc1NC(=O)CN1CCc2ccccc2C1 | inconclusive: -38.6%
22 | O=C(C1CCN(S(=O)(=O)c2cccs2)CC1)N(c1ccccn1)C1CCCCC1 | inactive: -1.16%
23 | Cc1ccc2nc(-c3ccccn3)c(Nc3ccccc3C)n2c1 | active: -59.2%
24 | CCOC(=O)C1(CCOc2ccccc2)CCN(Cc2ccc(O)c(OC)c2)CC1 | inconclusive: -39.2%
25 | CCCCN(CC)CCCNC(=O)CS(=O)(=O)Cc1nc(-c2cccc(OC)c2)oc1C | active: -50.9%
26 | COc1ccccc1/C=N/NC(=O)CC(=O)Nc1ccc(Cl)c(Cl)c1 | active: -65%
27 | O=[N+]([O-])c1cc2c(cc1C=Nc1ccccc1)OCO2 | inconclusive: -32.4%
28 | COCCN(CC(=O)Nc1cccc(C)c1C)C(=O)c1ccc2c(c1)OCO2 | inconclusive: -36.5%
29 | O=S(=O)(Nc1ncnc2sc3c(c12)CCC3)c1ccc(Cl)s1 | inconclusive: -49.4%
30 | COC(=O)/C(=C/c1ccc(F)cc1)NC(C)=O | inconclusive: -30.7%
31 | Nc1ccc(C(=O)N/N=C\c2cc(N=Nc3cccc4ccccc34)ccc2O)cc1 | active: -94.9%
32 | Cc1ccc(OCc2nc(-c3ccc(-n4cccc4)cc3)no2)cc1C | inconclusive: -36.7%
33 | CCn1nc(C)c(NC(=O)/C=C/c2ccc(OC)c(COc3ccc(Br)cc3)c2)c1C | inconclusive: -31.2%
34 | O=C1C(Cl)=C(Nc2ccc(O)cc2)C(=O)c2ccccc21 | inconclusive: -42.9%
35 | COc1cc(C)ccc1OCCCCN1CC(C)OC(C)C1 (configuration not stated) | inconclusive: -42.1%
36 | Cc1cc(-c2nn(-c3ccccc3F)cc2CN2CCCC(CO)C2)c(C)s1 (configuration not stated) | active: -52.9%
37 | O=[N+]([O-])c1ccc2c(c1Nc1ccccc1)=NC1(CCCCC1)N=2 | inconclusive: -42.7%
38 | CCN1CCCc2cc(CN(CCN3CCOCC3)C(=O)Nc3ccc(C)c(C)c3)ccc21 | inconclusive: -33.8%

Two entries picked at random from the list so far:
Row | Compound | max response, negative = inhibition
30 | COC(=O)/C(=C/c1ccc(F)cc1)NC(C)=O | inconclusive: -30.7%
26 | COc1ccccc1/C=N/NC(=O)CC(=O)Nc1ccc(Cl)c(Cl)c1 | active: -65%

Continued.

Row | Compound | max response, negative = inhibition
39 | COc1ccc2oc(/C=C/N(C)C)c(C(=O)c3ccc(Cl)cc3)c2c1 | inconclusive: -36.9%
40 | CCOC(=O)c1oc2ccccc2c1NC(=O)COC | active: -52.2%
41 | FC(F)(F)c1ccccc1CNCc1ccc2c(c1)OCO2 | inconclusive: -35.3%
42 | Cn1c(=O)c(/C(N)=N/OC(=O)c2ccccc2)cn(-c2ccccc2)c1=O | inconclusive: -31.1%
43 | COc1ccc(C2=NN(C(=O)c3ccncc3)C(c3ccccc3O)C2)cc1 (configuration not stated) | inactive: 7.74%
44 | O=c1[nH]nc(-c2ccc(F)cc2)cc1-c1ccccc1 | inconclusive: -42%
45 | CCC1(C)NC(=O)N(CC(=O)Nc2cc(C)on2)C1=O (configuration not stated) | inconclusive: -34.1%
46 | COc1cccc(CN2CCN(Cc3cc(OC)c(OC)cc3[N+](=O)[O-])CC2)c1 | inactive: -26.5%
47 | COc1ccc(Nc2nc3ccccc3n3cnnc23)cc1 | inactive: 2.56%
48 | CCN(CCO)C1CC(=O)N(c2ccccc2C)C1=O (configuration not stated) | inconclusive: -39.2%
49 | CSc1ccccc1NC(=O)CN(C)Cc1ccc(Br)cc1 | inconclusive: -48.9%
50 | Cc1cc(OCC(=O)N2CCOCC2)c(C(C)C)cc1Cl | active: -76.6%
51 | Cc1ccc(N(CC(=O)NC2CCCC2)C(=O)CNC(=O)c2cccs2)cc1C | inconclusive: -42.4%
52 | Cc1ccc(-c2cn(-c3ccccc3)c3[n+]2CCCS3)cc1 | inconclusive: -44.1%
53 | Oc1ccccc1CN(Cc1ccco1)CC(O)COCc1ccc(Cl)cc1 (configuration not stated) | inconclusive: -32.1%
54 | COCCn1nnnc1C(c1ccccc1OC)N1CCN(c2ccccc2)CC1 (configuration not stated) | inconclusive: -38.9%
55 | CCN1C[C@@H]2[C@@H]3C(=O)N(Cc4ccccc4)C(=O)[C@@H]3[C@](CC)(C1=O)N2C(=O)c1ccc(F)cc1 | inconclusive: -44%
56 | CCOc1cc(C(=O)NC(=S)Nc2ccc(Cl)c(C(=O)O)c2)cc(OCC)c1OCC | inconclusive: -33.4%
57 | COC(=O)c1cc(S(=O)(=O)NCC2CCN(Cc3cccc(F)c3)CC2)cn1C | inconclusive: -41.1%
